These are yes or no findings as the source states them, for the method shown. In cells and extracts the contact can be indirect. Some entries that bind do so weakly or less than the wild type.
Biological target: TEA-domain family member1 (TEAD1) (mouse (endogenous in left ventricle tissue)) (UniProt P30051)
Test: co-IP; nuclear protein fraction (1 ug/uL) of LV tissue of nTG and Mst1-TG mice; antibody against YAP1 or TEAD1 or IgG, overnight at 4 °C, protein A/G PLUS-agarose beads; immunoblotting

Sequences of proteins named here, by UniProt entry; tags and fusion partners are left off.
UniProt P30051: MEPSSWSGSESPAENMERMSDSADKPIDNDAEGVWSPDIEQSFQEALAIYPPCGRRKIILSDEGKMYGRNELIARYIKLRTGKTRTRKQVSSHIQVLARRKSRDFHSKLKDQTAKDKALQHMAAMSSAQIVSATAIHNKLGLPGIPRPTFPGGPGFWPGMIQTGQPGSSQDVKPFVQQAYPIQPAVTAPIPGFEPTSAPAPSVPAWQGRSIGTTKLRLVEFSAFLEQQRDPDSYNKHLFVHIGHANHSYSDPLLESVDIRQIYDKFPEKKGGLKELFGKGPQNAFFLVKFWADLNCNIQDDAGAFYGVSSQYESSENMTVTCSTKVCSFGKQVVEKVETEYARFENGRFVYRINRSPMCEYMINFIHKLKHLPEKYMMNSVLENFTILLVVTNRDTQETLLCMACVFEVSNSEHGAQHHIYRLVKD
UniProt Q9EPK5: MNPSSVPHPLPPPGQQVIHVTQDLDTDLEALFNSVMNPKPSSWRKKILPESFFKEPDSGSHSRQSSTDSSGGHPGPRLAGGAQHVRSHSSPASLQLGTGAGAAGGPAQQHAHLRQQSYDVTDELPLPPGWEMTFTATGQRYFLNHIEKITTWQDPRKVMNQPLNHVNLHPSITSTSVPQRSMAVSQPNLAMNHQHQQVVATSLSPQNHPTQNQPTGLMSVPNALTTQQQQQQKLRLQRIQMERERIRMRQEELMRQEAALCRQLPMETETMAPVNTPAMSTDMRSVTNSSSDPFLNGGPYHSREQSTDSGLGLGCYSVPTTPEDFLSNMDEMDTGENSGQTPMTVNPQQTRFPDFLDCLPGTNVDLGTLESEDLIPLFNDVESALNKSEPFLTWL
UniProt P46938: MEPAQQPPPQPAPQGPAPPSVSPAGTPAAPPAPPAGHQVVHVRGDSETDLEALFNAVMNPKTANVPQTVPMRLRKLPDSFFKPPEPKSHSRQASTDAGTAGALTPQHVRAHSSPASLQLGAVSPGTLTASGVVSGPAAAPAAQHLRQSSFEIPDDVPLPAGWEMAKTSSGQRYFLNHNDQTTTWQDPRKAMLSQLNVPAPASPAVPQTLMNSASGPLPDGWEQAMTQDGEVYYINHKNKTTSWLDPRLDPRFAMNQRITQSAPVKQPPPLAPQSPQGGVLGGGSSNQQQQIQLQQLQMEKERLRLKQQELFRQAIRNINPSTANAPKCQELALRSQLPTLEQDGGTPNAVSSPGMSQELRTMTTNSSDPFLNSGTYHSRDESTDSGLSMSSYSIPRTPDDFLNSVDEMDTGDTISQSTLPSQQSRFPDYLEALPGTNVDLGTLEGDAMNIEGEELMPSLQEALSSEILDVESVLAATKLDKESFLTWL

Row | Substance | binding
1 | transcriptional co-activator with PDZ-binding motif (TAZ, Wwtr1) (from UniProt Q9EPK5 1-395) | binds
2 | yes-associated protein (YAP) (from UniProt P46938 1-488) | binds

Reference: article PMC8419046
